According to PubChem BioAssay AID743255 (National Center for Advancing Translational Sciences (NCATS), 2014):
About 910 (0.23%) of roughly 390,000 compounds were called active. The shares of active, inactive and inconclusive entries below differ from those in the screen. The call rests on the fitted dose curve; in most records, active means well fitted inhibition curve with a large enough effect; inconclusive means small, poorly fitted or top-dose-only effect; inactive means no such curve, though single readings can be large or run the other way. A potency beside an inconclusive call is a rough fit, not a confirmed value.

Amino acid sequences for entries named in this document (tags omitted). A change or cut given only in a name is not applied to a line headed by its entry.
UniProt O94782: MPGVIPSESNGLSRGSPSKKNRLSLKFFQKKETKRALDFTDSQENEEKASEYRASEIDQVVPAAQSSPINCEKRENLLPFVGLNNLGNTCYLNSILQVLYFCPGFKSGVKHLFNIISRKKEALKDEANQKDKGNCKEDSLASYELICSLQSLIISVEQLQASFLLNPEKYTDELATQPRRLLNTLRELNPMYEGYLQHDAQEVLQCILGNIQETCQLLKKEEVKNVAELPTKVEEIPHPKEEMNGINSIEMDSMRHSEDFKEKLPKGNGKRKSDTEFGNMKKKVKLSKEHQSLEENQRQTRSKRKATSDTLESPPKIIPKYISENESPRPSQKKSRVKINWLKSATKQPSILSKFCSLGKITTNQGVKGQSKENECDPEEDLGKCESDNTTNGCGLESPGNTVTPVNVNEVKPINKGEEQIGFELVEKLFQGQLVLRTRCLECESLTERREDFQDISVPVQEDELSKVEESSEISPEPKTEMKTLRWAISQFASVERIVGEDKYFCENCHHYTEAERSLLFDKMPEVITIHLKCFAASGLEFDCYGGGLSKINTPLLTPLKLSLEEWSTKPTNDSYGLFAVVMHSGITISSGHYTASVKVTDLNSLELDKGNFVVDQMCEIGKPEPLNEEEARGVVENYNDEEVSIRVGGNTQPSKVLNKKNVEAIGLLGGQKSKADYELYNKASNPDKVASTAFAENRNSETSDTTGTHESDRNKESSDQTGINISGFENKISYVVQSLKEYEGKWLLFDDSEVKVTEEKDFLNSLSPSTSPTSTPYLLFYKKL

Each molecule was assayed against Ubiquitin carboxyl-terminal hydrolase 1 (Homo sapiens) (UniProt O94782) (assay: Inhibitors of USP1/UAF1: Primary Screen). Details: recombinant USP1/UAF1, Ub-Rhodamine cleavage fluorescence; activity change, negative = inhibition: at 57.1 µM (top of the series).
Procedure, shortened: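 In this screen, compounds sit with the deubiquitinase complex (1nM) for 15 min at room temperature before Ub-Rho is added at 150nM final. Fluorescence rise is then followed for 6 reads every 60 seconds.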
Further: nearly all actives have a fitted effect of over 60% in size.
On the % scale 0 is the no-effect control and ±100 the full control effect; potency means the concentration at half of the fitted maximal effect.

Activity change, negative = inhibition, inactive:
O=C(NNC(=S)NC(=O)c1ccccc1Cl)c1cccc([N+](=O)[O-])c1 -10.3%
Cc1ccc2nc(NC(=O)CSc3nc4c(c(=O)n3C)SC(C)C4)sc2c1 (stereo not drawn) -5.8%
COC(=O)c1ccc(NC(=O)CCn2cnnn2)cc1 -20%
CCOC(=O)c1c(N)c2cc([N+](=O)[O-])ccc2n1C -13.4%
COc1ccccc1NC(=O)CN(C)S(=O)(=O)c1ccc2c(c1)CCC(=O)N2 -23.3%
CC(C)C[C@H]1C(=O)N2CCC[C@H]2[C@]2(O)O[C@](NC(=O)[C@@H]3C=C4c5cccc6[nH]c(Br)c(c56)CC4N(C)C3)(C(C)C)C(=O)N12 (stereo partly drawn) -27.1%

2 successive entries out of the list so far, for reference:
Activity change, negative = inhibition, inactive:
O=C(NNC(=S)NC(=O)c1ccccc1Cl)c1cccc([N+](=O)[O-])c1 -10.3%
Cc1ccc2nc(NC(=O)CSc3nc4c(c(=O)n3C)SC(C)C4)sc2c1 (stereo not drawn) -5.8%

Next part:

Potency, inconclusive:
OCc1cc(-c2ccc(Cl)c(Cl)c2)on1 5.01 µM [inhibitor, partial curve]
CN1CCc2c(sc(NC(=O)CSc3ccccc3)c2-c2nc3ccccc3s2)C1 7.08 µM [inhibitor, partial curve, poor fit]
CCCCN1C(=N)N([C@@H](CCC)CN2CCC[C@H]2CN2C(N)=NC[C@H]2C(C)C)C[C@H]1[C@H](C)CC 0.282 µM [inhibitor, full curve, poor fit]
CCOC(=O)c1ccc(NC(=O)CSc2ccc3ccccc3n2)cc1 39.8 µM [inhibitor, single point]
COc1ccc(N2C(=O)CC(Sc3nc4ccccc4s3)C2=O)cc1 (stereo not drawn) 31.6 µM [inhibitor, partial curve]
Cc1ccc(C)c(N2CCN(C(=O)CCc3nc(-c4cccc(C(F)(F)F)c4)no3)CC2)c1 39.8 µM [inhibitor, single point]
COC1OC2COC(c3ccccc3)OC2C(O)C1N (stereo not drawn) 7.08 µM [inhibitor, single point]
Cc1ccc(S(=O)(=O)CNC(=S)c2cccc(Cl)c2)cc1 44.7 µM [inhibitor, partial curve, poor fit]
O=C(NCC(O)COc1ccc([N+](=O)[O-])cc1)Nc1ccccc1 (stereo not drawn) 0.355 µM [inhibitor, full curve, poor fit]
CCOc1ccc(N2CC(NC(=O)c3cccs3)CC2=O)cc1 (stereo not drawn) 0.708 µM [inhibitor, full curve, poor fit]
COc1ccc(CCNC(=O)CCc2ccsc2)cc1OC 6.31 µM [inhibitor, single point]
NNC(=O)c1oc2nc(-c3ccc(Cl)cc3)cc(-c3ccccc3)c2c1N 0.282 µM [inhibitor, full curve, poor fit]
